Among the data in doi:10.1101/2023.03.15.532838 are binding values, retold here.

By UniProt entry, the sequences of proteins in these tests, tags left out.
UniProt Q5SQI0: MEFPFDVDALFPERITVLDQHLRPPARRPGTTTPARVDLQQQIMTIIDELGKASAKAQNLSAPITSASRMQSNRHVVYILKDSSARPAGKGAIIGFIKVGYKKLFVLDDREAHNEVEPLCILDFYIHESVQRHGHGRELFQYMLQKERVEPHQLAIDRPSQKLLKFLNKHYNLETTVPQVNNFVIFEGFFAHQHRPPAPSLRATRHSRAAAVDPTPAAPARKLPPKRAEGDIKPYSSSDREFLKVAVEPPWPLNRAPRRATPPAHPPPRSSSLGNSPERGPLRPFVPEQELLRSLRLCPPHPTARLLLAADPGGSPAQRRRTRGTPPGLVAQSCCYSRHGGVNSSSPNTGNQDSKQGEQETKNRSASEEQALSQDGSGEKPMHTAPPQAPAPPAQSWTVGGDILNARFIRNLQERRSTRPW
UniProt O60282: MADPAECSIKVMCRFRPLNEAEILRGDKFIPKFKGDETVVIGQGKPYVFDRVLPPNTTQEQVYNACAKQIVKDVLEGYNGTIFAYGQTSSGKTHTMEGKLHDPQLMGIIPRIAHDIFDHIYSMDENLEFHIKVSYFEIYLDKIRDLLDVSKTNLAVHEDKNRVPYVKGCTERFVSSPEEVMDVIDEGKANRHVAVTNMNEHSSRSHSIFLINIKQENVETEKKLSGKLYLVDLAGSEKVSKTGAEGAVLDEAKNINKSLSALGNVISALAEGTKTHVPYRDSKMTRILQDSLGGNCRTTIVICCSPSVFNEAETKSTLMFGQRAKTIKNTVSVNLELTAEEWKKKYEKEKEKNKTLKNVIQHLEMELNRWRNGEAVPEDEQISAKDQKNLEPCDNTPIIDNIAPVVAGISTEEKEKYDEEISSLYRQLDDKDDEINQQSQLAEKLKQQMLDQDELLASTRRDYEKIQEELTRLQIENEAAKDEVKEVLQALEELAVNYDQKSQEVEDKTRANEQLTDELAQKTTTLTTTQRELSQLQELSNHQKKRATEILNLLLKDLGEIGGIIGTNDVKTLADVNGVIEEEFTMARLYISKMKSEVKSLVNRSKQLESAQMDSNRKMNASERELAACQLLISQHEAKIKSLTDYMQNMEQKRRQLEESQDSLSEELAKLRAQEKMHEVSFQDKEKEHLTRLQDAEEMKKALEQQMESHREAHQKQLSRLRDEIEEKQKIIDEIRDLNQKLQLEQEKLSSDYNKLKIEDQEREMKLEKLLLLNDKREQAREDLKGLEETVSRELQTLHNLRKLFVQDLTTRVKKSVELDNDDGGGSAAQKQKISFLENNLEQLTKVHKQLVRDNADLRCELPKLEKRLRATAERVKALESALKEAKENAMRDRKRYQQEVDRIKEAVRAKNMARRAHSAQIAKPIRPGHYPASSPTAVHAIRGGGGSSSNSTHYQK
UniProt Q8K341: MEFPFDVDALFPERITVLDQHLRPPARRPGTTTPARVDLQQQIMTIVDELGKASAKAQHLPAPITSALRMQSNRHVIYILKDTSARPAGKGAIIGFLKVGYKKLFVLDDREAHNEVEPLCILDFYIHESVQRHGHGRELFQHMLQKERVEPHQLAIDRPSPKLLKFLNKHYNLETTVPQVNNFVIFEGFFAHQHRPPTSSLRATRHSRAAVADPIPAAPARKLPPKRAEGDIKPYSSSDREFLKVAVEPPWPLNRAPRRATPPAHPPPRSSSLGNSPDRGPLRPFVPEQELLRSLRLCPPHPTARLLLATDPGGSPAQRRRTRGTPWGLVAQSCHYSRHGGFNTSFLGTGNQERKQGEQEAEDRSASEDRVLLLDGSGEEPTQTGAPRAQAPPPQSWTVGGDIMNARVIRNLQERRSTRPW

In one assay the target is T1, Myc-MFN2 WT (UniProt O95140).
T1 sequence: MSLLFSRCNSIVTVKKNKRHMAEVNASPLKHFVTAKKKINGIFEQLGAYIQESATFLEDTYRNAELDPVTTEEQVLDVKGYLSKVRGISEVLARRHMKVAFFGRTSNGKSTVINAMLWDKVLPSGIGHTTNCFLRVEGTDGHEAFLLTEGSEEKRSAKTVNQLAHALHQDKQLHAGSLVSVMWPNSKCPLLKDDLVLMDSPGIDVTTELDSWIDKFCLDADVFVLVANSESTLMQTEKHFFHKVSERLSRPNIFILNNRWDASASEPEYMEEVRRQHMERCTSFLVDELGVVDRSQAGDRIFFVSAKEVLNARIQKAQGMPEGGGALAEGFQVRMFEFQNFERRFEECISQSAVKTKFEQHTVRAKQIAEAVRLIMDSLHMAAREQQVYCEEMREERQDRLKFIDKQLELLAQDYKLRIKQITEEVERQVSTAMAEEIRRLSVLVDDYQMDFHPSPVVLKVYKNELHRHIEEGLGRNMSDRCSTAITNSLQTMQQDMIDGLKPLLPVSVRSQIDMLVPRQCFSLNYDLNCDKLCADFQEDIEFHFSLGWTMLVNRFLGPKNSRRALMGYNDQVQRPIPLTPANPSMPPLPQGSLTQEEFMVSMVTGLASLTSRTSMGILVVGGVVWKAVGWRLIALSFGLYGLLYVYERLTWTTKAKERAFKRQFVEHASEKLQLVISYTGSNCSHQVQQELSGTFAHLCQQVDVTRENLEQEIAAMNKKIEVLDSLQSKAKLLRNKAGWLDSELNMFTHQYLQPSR
The assay can be described thus: co-IP.

The target of assay [1] is Flag-ATAT1 WT (UniProt Q5SQI0). Description: co-IP.
For assay [2], the target named is Flag-ATAT1 WT (UniProt Q5SQI0). Description: co-IP. This is another data set of the same source.
Assay [3] has as its target T2, Mitofusin-2 (MFN2), endogenous in WT MEFs (mouse (endogenous in MEFs)) (UniProt Q80U63).
T2 sequence: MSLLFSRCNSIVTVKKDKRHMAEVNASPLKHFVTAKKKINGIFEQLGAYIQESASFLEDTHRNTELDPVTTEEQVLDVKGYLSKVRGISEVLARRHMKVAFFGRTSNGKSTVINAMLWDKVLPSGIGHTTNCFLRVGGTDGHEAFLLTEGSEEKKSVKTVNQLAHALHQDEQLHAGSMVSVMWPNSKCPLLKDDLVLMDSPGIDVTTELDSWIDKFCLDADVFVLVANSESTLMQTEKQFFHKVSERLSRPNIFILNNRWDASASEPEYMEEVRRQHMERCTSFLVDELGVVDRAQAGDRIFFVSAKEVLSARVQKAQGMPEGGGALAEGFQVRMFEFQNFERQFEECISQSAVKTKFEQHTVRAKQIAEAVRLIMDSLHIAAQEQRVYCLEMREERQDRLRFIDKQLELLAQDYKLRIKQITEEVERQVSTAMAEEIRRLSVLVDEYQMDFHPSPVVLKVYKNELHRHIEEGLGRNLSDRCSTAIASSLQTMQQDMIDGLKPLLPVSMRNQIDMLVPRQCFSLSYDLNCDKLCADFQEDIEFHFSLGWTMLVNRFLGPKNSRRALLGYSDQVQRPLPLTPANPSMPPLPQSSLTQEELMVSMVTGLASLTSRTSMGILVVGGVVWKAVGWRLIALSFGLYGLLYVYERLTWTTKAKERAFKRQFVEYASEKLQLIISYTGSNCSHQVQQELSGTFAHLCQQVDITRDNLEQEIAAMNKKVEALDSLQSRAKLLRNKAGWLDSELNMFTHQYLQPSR
Description: proximity ligation.

Read-outs that look alike come from different tables or passages of the source. No constants are given. Whether binding was seen depends on the method and setting. Binding seen in cells or lysates may run through a third protein. Some entries that bind do so weakly or less than the wild type. For some of these results: Where a sequence is shown, tags or fusion partners need not be part of it.

As for “ATAT1, endogenous in HEK293T cells (from UniProt Q5SQI0 1-421) (enzyme)”, the binding entry with Myc-MFN2 WT is given as “binds”.

Turning to “Kinesin heavy chain (Kif5c), endogenous in HEK293T cells (from UniProt O60282 1-957)”, the binding entry with Flag-ATAT1 WT [1] and with Flag-ATAT1 WT [2] was “binds” throughout.

Turning to “α-tubulin acetyltransferase 1 (ATAT1), endogenous in WT MEFs (from UniProt Q8K341 1-421) (enzyme)”, in assay [3], the binding result is “binds”.
